Tested on: V79 cells
Experiment: Cellular uptake by flow cytometry (mean fluorescence intensity, lognormal fit)
Type: cell-based, Chinese hamster
Details: for slope of net MFI versus extracellular drug concentration, low concentrations: daunomycin <0.6 μmol/L, doxorubicin <1 μmol/L; for slope of net MFI versus extracellular drug concentration, high concentrations: daunomycin >0.6 μmol/L, doxorubicin above 1 μmol/L

Row | Compound | slope of net MFI versus extracellular drug concentration, low concentrations | slope of net MFI versus extracellular drug concentration, high concentrations
1 | COc1cccc2c1C(=O)c1c(O)c3c(c(O)c1C2=O)C[C@@](O)(C(C)=O)C[C@@H]3O[C@H]1C[C@H](N)[C@H](O)[C@H](C)O1 [daunomycin] | 5922 (μmol/L)^−1 | 2480 (μmol/L)^−1
2 | COc1cccc2c1C(=O)c1c(O)c3c(c(O)c1C2=O)C[C@@](O)(C(=O)CO)C[C@@H]3O[C@H]1C[C@H](N)[C@H](O)[C@H](C)O1 [doxorubicin] | 61 (μmol/L)^−1 | 40 (μmol/L)^−1
